{
  "sequences": {"note": "Protein sequences, listed by entry. Tags and fused reporters are not part of them. Lines headed by an entry give the natural chain unless they say otherwise; changes in a name come on top. Residues count along the entry.", "UniProt Q09472": "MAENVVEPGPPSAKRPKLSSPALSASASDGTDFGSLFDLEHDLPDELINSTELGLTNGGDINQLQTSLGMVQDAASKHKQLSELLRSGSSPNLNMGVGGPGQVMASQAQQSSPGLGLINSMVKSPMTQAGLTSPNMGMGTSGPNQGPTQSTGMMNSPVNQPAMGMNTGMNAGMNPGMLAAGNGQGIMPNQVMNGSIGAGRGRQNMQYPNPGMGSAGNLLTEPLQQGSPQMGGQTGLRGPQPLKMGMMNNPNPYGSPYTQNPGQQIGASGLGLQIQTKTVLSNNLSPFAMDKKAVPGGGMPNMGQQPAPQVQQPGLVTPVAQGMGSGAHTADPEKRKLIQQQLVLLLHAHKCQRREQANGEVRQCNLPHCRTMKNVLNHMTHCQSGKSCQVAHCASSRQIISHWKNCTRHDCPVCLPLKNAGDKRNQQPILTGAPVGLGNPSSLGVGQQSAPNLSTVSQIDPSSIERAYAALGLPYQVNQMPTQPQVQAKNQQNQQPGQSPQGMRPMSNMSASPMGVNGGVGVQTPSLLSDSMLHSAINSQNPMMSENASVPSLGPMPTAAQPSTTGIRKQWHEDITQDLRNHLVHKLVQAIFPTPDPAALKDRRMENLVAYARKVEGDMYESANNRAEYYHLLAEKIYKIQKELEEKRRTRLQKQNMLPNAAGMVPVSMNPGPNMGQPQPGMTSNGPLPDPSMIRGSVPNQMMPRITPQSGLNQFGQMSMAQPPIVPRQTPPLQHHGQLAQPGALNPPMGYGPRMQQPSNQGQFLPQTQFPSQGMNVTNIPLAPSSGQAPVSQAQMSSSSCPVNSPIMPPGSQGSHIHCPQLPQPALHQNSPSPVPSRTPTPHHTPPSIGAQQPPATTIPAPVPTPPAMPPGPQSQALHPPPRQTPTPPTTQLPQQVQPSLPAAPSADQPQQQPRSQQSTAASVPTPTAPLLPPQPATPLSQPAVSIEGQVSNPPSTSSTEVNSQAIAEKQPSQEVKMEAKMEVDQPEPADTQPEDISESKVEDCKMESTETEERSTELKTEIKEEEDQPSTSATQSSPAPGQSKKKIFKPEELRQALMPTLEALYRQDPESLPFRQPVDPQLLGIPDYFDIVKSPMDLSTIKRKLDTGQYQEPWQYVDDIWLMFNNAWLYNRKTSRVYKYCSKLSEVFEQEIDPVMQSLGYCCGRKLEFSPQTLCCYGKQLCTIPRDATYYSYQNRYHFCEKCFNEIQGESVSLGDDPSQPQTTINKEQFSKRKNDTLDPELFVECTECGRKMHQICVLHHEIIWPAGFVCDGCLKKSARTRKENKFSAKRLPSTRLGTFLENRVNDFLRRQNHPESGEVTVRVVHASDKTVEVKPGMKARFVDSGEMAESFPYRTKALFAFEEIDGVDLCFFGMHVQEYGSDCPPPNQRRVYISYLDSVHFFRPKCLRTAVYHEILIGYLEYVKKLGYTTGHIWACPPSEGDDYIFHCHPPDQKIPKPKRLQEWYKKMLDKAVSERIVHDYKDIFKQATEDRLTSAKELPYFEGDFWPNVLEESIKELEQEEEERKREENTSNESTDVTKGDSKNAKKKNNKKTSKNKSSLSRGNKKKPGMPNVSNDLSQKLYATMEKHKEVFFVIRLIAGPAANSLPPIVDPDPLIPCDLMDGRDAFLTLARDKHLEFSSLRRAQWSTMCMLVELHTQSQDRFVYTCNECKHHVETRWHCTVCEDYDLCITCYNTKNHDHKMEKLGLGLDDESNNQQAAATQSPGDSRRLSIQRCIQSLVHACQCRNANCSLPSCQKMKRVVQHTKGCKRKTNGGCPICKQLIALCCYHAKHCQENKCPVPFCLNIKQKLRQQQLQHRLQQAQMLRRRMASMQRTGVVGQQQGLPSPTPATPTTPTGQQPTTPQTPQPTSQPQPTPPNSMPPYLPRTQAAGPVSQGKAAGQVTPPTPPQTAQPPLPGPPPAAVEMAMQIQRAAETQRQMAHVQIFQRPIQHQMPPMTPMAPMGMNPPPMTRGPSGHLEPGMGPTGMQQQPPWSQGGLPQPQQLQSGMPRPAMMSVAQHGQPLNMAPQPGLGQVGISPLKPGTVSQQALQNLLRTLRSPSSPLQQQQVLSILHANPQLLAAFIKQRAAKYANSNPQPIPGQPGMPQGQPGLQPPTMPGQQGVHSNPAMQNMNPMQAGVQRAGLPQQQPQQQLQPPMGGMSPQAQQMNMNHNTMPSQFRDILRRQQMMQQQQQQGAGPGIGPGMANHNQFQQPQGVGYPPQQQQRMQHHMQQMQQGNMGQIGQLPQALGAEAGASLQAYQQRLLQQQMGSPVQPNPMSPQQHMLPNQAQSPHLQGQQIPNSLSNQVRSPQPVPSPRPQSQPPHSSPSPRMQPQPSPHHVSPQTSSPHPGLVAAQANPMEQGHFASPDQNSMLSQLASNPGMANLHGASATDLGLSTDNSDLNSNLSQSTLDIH", "UniProt P09919, residues 31-207": "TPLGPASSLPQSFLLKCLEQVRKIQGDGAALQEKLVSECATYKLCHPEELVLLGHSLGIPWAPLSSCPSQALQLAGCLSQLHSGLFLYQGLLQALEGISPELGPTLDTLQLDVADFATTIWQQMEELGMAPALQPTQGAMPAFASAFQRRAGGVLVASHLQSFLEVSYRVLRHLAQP", "UniProt P40225, residues 22-353": "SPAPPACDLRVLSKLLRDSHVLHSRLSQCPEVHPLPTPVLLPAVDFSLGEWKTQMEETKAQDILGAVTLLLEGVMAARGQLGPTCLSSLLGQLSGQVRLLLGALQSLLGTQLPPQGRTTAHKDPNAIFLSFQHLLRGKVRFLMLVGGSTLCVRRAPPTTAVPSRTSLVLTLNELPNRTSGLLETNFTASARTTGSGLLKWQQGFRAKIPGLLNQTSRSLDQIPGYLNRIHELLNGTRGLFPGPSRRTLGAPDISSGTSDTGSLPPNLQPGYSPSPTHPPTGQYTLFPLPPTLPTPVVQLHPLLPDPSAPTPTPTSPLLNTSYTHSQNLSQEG", "UniProt P08246, residues 30-267": "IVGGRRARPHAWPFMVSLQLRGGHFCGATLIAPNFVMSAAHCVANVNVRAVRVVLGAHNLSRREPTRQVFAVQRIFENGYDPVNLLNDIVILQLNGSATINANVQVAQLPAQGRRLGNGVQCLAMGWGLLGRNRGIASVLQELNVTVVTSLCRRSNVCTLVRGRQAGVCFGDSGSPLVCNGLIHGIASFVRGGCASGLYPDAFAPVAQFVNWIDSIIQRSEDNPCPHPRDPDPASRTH"},
  "source": "paper PMC9663303",
  "key": {"[1]": {"molecular_target": "E1A binding protein P300 (human (endogenous in KG1a)) (UniProt Q09472)", "assay": "co-IP; KG1a cells lysed in non-denaturing lysis buffer; about 300 ug protein with 1 ug G-CSF antibody or EP300 antibody and protein A/G magnetic beads at 4 °C overnight; bound proteins by WB with anti-ELANE or anti-TPO; rabbit IgG as negative control"}, "[2]": {"molecular_target": "Granulocyte colony-stimulating factor (human (endogenous in KG1a)) (UniProt P09919)", "assay": "co-IP; KG1a cells lysed in non-denaturing lysis buffer; about 300 ug protein with 1 ug G-CSF antibody or EP300 antibody and protein A/G magnetic beads at 4 °C overnight; bound proteins by WB with anti-ELANE or anti-TPO; rabbit IgG as negative control"}},
  "note": "These are yes or no findings as the source states them, for the method shown. In cells and extracts the contact can be indirect. Some results given as binding are weak or reduced against the parent protein; the word gives no strength.",
  "data": [
    {"substance": "Thrombopoietin (from UniProt P40225 22-353) (ligand)", "values": [
      {"measurement": "binding", "setting": "[1]", "result": "binds"}
    ]},
    {"substance": "neutrophil elastase (from UniProt P08246 30-267) (enzyme)", "values": [
      {"measurement": "binding", "setting": "[2]", "result": "binds"}
    ]}
  ]
}
